PubChem BioAssay AID504804 | Drosophila RNAi Screening Center, 2011

Screen: 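Knock-downs shielding fly cells from apoptosis caused by DNA damage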 (primary screen)
Cells: Drosophila Kc cells
Reagents: long dsRNA against Drosophila genes, 0.5 µg dsRNA per well
Time to read-out: 96 h (48 h knock-down, then 48 h drug)
Conditions: doxorubicin 5 µg/ml for 48 h, added 48 h after dsRNA
Detection: 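Viability measured as cellular ATP by luminescence after 48 h knock-down then 48 h doxorubicin at 5 µg/ml; unnormalised plate counts for each replicate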
Reading the numbers: raw ATP luminescence: higher = more viable cells, protection from doxorubicin
Rule for the call: 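z-score of 2 or more over plate mean in both duplicates, retained only when retests and separate dsRNAs confirm the protection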
The deposit covers about 19,000 reagents; shown is a random part of those that have a named target and a result. In the full data, 47 (0.25%) were called active. 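Signals are raw, not normalised; exact z-scores behind calls not deposited; actives needed confirmation, so some wells reaching 2 SD are inactive.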 Entries without a mark were called inactive. Reagents against one gene are numbered here. A plus sign joins genes that one reagent is predicted to hit. Reagent sequences are not shown.

gene	dsRNA no.	raw ATP luminescence, replicate 1	raw ATP luminescence, replicate 2
CG8248	1	62300	60493
PGRP-SC1b (Peptidoglycan recognition protein SC1b)	1	53397	45543
CG14646	1	17033	21840
eyg (eyegone)	1	38197	34153
Gem4b + Gem4c	1	1.90e5	1.69e5
emei	1	80007	57160
smal (smoke alarm)	1	25167	29720
smal (smoke alarm)	2	23963	35973
smal (smoke alarm)	3	26577	33740
smal (smoke alarm)	4	31817	35693
CG2790	1	57070	49427
Hml (Hemolectin)	1	66413	73933
Atg2 (Autophagy-related 2)	1	87333	57980

A portion taken from the entries so far, as a working copy:
gene	dsRNA no.	raw ATP luminescence, replicate 1	raw ATP luminescence, replicate 2
smal (smoke alarm)	2	23963	35973
smal (smoke alarm)	3	26577	33740
smal (smoke alarm)	4	31817	35693
CG2790	1	57070	49427

The results go on:
gene	dsRNA no.	raw ATP luminescence, replicate 1	raw ATP luminescence, replicate 2
Strica (Ser/Thr-rich caspase)	1	46740	54353
RhoGAP92B (Rho GTPase activating protein at 92B)	1	60860	81990
RhoGAP92B (Rho GTPase activating protein at 92B)	2	67230	65700
CG2269	1	78443	61793
CG8229	1	50967	53687
CG7600	1	33813	39963
CG8272	1	51363	45243
Gadd45 (Growth arrest and DNA damage-inducible 45)	1	40067	78470
CG6933	1	39747	19467
VAChT (Vesicular acetylcholine transporter)	1	3.10e5	2.66e5
VAChT (Vesicular acetylcholine transporter)	2	47697	46970
CG11458	1	53373	43263
RhoGAP15B (Rho GTPase activating protein at 15B)	1	3.24e5	2.59e5
CG13455	1	66477	39663
Bgb	1	61770	66677
Unc-115b + p24-2 + Unc-115a	1	63600	67803
by (blistery)	1	56803	62637
slam (slow as molasses)	1	15933	17677
MstProx + Mst84Da	1	59153	63913
Cda5 (Chitin deacetylase-like 5)	1	2.68e5	3.08e5
CG5391	1	50860	51300
